# Measured values from PMC3033373.
# Sequences of proteins named here, by UniProt entry; tags and fusion partners are left off. A change or cut given only in a name is not applied to a line headed by its entry. A line that says so, or that is headed by a name, gives the form on record, which may keep a tag or linker.
# UniProt P09269: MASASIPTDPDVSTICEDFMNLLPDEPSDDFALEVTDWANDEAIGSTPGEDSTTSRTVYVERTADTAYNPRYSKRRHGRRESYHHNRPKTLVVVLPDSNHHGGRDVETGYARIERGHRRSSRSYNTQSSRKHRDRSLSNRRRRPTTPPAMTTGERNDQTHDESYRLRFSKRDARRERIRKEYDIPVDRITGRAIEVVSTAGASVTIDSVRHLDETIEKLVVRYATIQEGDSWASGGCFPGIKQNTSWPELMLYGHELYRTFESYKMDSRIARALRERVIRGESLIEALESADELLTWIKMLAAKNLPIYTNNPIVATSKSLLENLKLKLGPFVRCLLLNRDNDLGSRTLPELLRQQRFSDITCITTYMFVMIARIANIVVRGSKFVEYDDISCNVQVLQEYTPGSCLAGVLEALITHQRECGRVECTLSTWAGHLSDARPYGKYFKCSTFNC
# Promyelocytic leukemia protein isoform IV (PML IV) (P29590-5, form named): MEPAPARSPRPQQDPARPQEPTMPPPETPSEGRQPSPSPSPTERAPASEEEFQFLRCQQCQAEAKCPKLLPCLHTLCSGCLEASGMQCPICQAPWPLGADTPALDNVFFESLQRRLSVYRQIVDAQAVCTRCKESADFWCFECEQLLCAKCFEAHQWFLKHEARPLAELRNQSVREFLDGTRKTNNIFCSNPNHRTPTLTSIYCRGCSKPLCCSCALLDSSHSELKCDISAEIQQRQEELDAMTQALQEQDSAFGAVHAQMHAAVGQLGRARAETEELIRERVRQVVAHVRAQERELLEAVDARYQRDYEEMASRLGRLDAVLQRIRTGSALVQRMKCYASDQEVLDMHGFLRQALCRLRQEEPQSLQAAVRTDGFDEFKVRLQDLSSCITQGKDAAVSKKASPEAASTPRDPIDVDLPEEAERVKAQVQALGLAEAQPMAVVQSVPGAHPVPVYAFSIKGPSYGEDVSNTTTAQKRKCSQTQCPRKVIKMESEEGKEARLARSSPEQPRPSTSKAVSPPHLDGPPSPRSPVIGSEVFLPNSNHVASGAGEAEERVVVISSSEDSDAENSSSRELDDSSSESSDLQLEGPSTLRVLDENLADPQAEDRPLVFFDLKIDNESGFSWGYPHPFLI
# These are yes or no findings as the source states them, for the method shown. Binding seen in cells or lysates may run through a third protein.
# Target: VZV ORF4 protein tagged with maltose-binding protein (MBP-ORF4) (varicella-zoster virus (VZV)) (UniProt P09269)
# Assay: co-IP; cells co-transfected with PML IV and MBP-ORF23 or MBP-ORF4; lysed in high salt buffer (450 mM NaCl, 0.5% NP-40), diluted with NaCl-free buffer; anti-MBP antibody on sepharose beads, 4 °C, 4 hr; washed six times in 20 mM HEPES pH 7.2, 90 mM NaCl, 1.5 mM MgCl2, 0.5% NP-40, 20% glycerol; PML IV detected by blot with rabbit polyclonal anti-PML
substance,measurement,value
Promyelocytic leukemia protein isoform IV (PML IV) (from UniProt P29590-5 1-633),binding,no binding
